The values that follow come from patent US20120231482A1, “METHOD, KIT OR DIAGNOSTIC FOR THE DETECTION OF REAGENTS WHICH INDUCE ALTERED CONTRACTILITY” (THE JOHNS HOPKINS UNIVERSITY, priority 2009, published 2012).

Amino acid sequences for entries named in this document (tags omitted). Residues count along the entry.
UniProt P02563: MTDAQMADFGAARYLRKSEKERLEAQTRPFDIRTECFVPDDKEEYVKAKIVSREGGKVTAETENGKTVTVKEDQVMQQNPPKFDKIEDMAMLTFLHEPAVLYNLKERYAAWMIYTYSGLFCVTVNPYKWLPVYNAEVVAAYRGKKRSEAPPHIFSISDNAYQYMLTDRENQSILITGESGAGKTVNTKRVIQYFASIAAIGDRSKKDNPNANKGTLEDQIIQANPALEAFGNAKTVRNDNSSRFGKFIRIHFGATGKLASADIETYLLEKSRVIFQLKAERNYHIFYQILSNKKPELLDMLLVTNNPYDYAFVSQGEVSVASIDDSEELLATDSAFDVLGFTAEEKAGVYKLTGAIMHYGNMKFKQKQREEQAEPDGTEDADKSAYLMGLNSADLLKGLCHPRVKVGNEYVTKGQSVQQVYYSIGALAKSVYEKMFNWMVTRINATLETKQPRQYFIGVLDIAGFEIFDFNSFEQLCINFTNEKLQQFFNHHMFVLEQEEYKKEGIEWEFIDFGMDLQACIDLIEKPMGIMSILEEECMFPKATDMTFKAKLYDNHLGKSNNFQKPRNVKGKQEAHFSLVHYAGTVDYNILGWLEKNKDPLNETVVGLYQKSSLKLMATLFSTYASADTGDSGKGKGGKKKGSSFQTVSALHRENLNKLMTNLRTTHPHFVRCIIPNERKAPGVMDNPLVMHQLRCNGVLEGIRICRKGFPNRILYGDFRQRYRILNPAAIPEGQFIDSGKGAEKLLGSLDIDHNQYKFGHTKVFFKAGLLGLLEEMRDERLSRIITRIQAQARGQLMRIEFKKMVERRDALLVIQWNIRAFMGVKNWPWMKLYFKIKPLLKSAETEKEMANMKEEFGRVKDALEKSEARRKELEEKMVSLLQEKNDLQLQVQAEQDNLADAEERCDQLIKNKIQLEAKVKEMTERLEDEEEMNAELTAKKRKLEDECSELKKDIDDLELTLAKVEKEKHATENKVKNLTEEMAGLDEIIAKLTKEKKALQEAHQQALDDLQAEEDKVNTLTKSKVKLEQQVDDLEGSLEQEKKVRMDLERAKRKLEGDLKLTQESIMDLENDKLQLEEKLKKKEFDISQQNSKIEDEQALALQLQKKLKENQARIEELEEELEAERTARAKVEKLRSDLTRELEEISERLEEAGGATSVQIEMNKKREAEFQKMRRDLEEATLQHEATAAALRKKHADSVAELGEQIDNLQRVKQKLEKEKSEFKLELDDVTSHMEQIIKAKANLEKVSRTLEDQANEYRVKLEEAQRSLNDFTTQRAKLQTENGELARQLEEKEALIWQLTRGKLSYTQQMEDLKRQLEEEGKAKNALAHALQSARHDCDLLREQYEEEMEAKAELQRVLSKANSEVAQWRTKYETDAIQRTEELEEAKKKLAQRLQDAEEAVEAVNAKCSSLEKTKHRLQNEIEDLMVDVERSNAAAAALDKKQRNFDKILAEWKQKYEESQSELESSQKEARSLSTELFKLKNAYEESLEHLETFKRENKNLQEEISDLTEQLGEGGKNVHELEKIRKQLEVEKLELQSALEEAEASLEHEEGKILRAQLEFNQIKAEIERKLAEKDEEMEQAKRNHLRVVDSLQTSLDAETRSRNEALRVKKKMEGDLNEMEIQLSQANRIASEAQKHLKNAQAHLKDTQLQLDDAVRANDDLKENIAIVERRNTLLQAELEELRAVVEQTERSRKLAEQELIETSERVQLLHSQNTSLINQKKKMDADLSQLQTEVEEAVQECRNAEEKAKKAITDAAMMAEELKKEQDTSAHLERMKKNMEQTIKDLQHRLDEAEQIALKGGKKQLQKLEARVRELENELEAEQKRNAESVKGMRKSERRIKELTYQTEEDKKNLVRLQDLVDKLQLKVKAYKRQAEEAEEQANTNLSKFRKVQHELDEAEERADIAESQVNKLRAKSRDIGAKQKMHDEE
UniProt P16409, residues 2-200: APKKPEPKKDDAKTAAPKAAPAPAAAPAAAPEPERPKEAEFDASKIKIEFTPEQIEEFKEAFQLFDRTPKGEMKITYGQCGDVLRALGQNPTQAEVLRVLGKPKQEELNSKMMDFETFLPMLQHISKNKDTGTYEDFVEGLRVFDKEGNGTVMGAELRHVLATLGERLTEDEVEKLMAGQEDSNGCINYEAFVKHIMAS

In the assay the target is myosin heavy chain α, rat cardiac myofibrils (rat) (UniProt P02563). The assay can be described thus: reducing/non-reducing 1D SDS-PAGE western blot of NCA or AS treated rat cardiac myofibrils. Background: A western blot detects proteins with antibodies after separation by electrophoresis.

These are yes or no findings as the source states them, for the method shown. Some entries that bind do so weakly or less than the wild type.

For “myosin light chain 1, rat cardiac (from UniProt P16409 2-200)”, the binding result is reported as “binds”.
